Measurements reported in publication PMC11294583.

Chains of the proteins cited; added tags and fusions are not shown.
UniProt P35177: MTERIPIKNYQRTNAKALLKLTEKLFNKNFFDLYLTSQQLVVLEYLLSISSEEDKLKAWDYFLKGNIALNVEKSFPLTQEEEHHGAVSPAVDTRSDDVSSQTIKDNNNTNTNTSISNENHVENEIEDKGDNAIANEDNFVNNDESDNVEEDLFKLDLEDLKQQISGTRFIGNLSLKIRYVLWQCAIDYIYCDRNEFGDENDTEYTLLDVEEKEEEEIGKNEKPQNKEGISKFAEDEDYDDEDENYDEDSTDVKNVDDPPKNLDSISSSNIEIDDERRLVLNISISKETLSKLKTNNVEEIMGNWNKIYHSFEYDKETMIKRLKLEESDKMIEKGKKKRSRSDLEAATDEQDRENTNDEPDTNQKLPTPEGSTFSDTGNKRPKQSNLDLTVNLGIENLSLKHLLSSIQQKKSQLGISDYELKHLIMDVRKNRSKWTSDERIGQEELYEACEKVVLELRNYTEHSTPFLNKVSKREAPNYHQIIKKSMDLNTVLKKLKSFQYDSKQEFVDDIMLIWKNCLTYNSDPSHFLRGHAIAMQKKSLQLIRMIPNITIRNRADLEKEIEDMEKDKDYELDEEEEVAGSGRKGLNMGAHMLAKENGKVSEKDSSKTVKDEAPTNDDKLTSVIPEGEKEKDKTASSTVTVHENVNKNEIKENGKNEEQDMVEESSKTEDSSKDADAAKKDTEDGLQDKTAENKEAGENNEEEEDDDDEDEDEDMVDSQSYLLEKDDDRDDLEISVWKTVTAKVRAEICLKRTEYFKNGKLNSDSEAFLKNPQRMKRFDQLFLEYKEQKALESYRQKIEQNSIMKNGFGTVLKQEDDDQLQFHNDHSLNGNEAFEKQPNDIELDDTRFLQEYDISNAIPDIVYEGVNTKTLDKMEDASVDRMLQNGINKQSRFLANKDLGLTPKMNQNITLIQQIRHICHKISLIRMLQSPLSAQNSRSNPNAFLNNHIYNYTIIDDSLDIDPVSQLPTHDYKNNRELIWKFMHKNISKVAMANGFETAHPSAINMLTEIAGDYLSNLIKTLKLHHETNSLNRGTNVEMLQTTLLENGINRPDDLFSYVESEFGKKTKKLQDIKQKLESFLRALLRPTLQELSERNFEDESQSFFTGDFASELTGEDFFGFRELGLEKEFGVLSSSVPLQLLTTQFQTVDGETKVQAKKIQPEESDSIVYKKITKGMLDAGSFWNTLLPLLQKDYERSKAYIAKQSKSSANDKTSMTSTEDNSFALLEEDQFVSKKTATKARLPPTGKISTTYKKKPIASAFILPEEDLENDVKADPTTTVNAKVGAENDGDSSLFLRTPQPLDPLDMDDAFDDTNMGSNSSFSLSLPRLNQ

T1: Ume6 tagged at the carboxy-terminus with TurboID (TurboID-3xMyc) (Saccharomyces cerevisiae) (UniProt P39001)
T1 sequence: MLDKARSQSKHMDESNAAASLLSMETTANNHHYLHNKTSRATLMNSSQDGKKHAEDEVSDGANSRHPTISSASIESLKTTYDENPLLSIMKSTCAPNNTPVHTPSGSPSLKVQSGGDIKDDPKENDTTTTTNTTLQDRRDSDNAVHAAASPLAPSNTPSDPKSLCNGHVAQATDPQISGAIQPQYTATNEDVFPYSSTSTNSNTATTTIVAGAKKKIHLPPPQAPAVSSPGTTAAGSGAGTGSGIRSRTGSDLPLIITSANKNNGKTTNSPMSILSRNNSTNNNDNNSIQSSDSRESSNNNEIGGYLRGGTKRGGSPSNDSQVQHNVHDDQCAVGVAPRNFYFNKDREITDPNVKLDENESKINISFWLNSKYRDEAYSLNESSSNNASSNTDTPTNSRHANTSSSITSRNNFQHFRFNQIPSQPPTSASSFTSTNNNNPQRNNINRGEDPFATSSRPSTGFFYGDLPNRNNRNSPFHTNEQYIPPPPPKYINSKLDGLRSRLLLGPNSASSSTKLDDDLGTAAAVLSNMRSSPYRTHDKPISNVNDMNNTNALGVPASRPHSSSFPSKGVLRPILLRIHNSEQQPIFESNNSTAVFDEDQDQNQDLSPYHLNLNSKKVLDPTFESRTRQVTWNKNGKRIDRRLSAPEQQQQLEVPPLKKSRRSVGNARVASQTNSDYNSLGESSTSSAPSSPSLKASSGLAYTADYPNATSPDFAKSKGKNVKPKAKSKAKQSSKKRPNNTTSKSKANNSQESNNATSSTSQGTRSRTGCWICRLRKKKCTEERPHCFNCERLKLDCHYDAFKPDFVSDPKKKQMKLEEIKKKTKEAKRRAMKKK

B1: Spt6 (protein, UniProt P23615 1-1451)
chain: MEETGDSKLVPRDEEEIVNDNDETKAPSEEEEGEDVFDSSEEDEDIDEDEDEARKVQEGFIVNDDDENEDPGTSISKKRRKHKRREREEDDRLSEDDLDLLMENAGVERTKASSSSGKFKRLKRVGDEGNAAESESDNVAASRQDSTSKLEDFFSEDEEEEESGLRNGRNNEYGRDEEDHENRNRTADKGGILDELDDFIEDDEFSDEDDETRQRRIQEKKLLREQSIKQPTQITGLSSDKIDEMYDIFGDGHDYDWALEIENEELENGNDNNEAEEEEIDEETGAIKSTKKKISLQDIYDLEDLKKNLMTEGDMKIRKTDIPERYQELRAGITDYGNMSSEDQELERNWIAEKISVDKNFDANYDLTEFKEAIGNAIKFITKENLEVPFIYAYRRNYISSREKDGFLLTEDDLWDIVSLDIEFHSLVNKKDYVQRFYAELHIDDPIVTEYFKNQNTASIAELNSLQDIYDYLEFKYANEINEMFINHTGKTGKKHLKNSSYEKFKASPLYQAVSDIGISAEDVGENISSQHQIHPPVDHPSSKPVEVIESILNANSGDLQVFTSNTKLAIDTVQKYYSLELSKNTKIREKVRSDFSKYYLADVVLTAKGKKEIQKGSLYEDIKYAINRTPMHFRRDPDVFLKMVEAESLNLLSVKLHMSSQAQYIEHLFQIALETTNTSDIAIEWNNFRKLAFNQAMDKIFQDISQEVKDNLTKNCQKLVAKTVRHKFMTKLDQAPFIPNVRDPKIPKILSLTCGQGRFGADAIIAVYVNRKGDFIRDYKIVDNPFDKTNPEKFEDTLDNIIQSCQPNAIGINGPNPKTQKFYKRLQEVLHKKQIVDSRGHTIPIIYVEDEVAIRYQNSERAAQEFPNKPPLVKYCIALARYMHSPLLEYANLTSEEVRSLSIHPHQNLLSSEQLSWALETAFVDIVNLVSVEVNKATDNNYYASALKYISGFGKRKAIDFLQSLQRLNEPLLARQQLITHNILHKTIFMNSAGFLYISWNEKRQKYEDLEHDQLDSTRIHPEDYHLATKVAADALEYDPDTIAEKEEQGTMSEFIELLREDPDRRAKLESLNLESYAEELEKNTGLRKLNNLNTIVLELLDGFEELRNDFHPLQGDEIFQSLTGESEKTFFKGSIIPVRVERFWHNDIICTTNSEVECVVNAQRHAGAQLRRPANEIYEIGKTYPAKVIYIDYANITAEVSLLDHDVKQQYVPISYSKDPSIWDLKQELEDAEEERKLMMAEARAKRTHRVINHPYYFPFNGRQAEDYLRSKERGEFVIRQSSRGDDHLVITWKLDKDLFQHIDIQELEKENPLALGKVLIVDNQKYNDLDQIIVEYLQNKVRLLNEMTSSEKFKSGTKKDVVKFIEDYSRVNPNKSVYYFSLNHDNPGWFYLMFKINANSKLYTWNVKLTNTGYFLVNYNYPSVIQLCNGFKTLLKSNSSKNRMNNYR
B2: Tod6 (protein, UniProt P34219 1-525)
chain: MTLPKLSSVSVSSGHVSANSHGFSILSKHPHPNNLVHSHSLSHTNAKSHLPISSTSTKENSTNKEEAESLKKNNPSSWDPSDDIKLRHLKEIKNLGWKEIAHHFPNRTPNACQFRWRRLKSGNLKSNKTAVIDINKLFGVYATGDATPSAGTPSAEEAVKEEAVEDEDITAGSSAIEDSPPDFKPLVKPKYMDRKLITQRSTSTFSDHEPQHTKPRKLFVKPRSFSHSITTNTPNVKTAQQTNLSLYNTTSAKTNKAVNSNDYENIGLVPKIIIRSRRNSFIPSTQIPHSTTKTRKNSHSVISSRRSSFNMMHSRRSSFNSHAPTEPISRRASLVVSPYMSPRRLSTSQSVHYHPQHQYYLNPIASPNCKTDHANDKITHTRTFLDMQKFANKHPWSREDDEVLLNNTKDKQNHLSPLEISIVLPNNRSELEIQQRMDYLKRKGRVSGFHTNEGCKDEEEEDDIDPLHKENGINTPSQQSQNYGMLEAKHDNPKSSELSSMTSANDIRNEQDELPGINSIFKNIF
B3: Rxt2 (protein, UniProt P38255 1-430)
chain: MTIRSSMKNNAELESKSVLANESNIISTFTRRIIKEKSGNYQVLKRSLDGKLIYPEATGISSNRGNKLLQRSEVVTRRDLNNSKPMIEQTVFYNGSEHRLLQTNIVTDSRRKRIKFTPDINVEPVLVGDENDIDGSEKEDENITDEYYGEEDDDDLSKLVNVKEILTPILSLGDIINHKTISRTFSSPILKNLALQIILMIEKEQMSVVRYSQFLEVFLGDHPEPIYESNLNLPSYNHNLTLPEDRGASDEDDINNKNNINEVNSNSLSTEAGHINNGMEEFGEEDPFFALPRLEQSNALLSLLPSSSGSASISTLTAAEQQQLNEEIESARQLSQIALQRNKEFIRNLQKIRKSVIKANRIRGRILNWSREYLGISDDDITIPVALRVVKRGLISATTNKTTNFEEEIENTMEDGVVDDNEPDEEANRA
B4: Tea1, Ty1 enhancer activator I (protein, UniProt P47988 1-759)
chain: MTAPLWPNKNEKNHTVKRALSTDMTSNILSSTNASSNEENSRSSSAANVRSGTGANTLTNGGSTRKRLACTNCRNRRKKCDLGFPCGNCSRLELVCNVNDEDLRKKRYTNKYVKSLESHIAQLETNLKNLVQKIYPDDEQILNRMMVGDVLSALPDSSQVSINYTDQTPSLPIPATRGTFIIENDKVSQPLSSFNQQTEPSTLNSGIFNTQKQNFEESLDDQLLLRRSLTPQGEKKKKPLVKGSLYPEGPVSYKRKHPVKSDSLLPVSSLTAATDPSTFSDGITAGNSVLVNGELKKRISDLKTTVIVRGLNDDNPNSINNDPRILKSLSNFYKWLYPGYFIFVHRESFLYGFFNHSKNNYEDSSYCSVELIYAMCAVGSRLTPDLQEYSEVYYQRSKKTLLQLVFDEQSTARITTVQALFCLAFYELGKGNNQLGWYFSGLAIRVGYDMGFQLDPKVWYVDDNNLQLTQSELEIRSRIYWGCYIADHFICLMLGRTSTLSVSNSTMPESDELPEVNGTEEFRFIGRHVLQISLPLKNLIILSRLVQIFTSKIFIESEDIARKLKYLNTFNSQVYNWRQSLPEFLQWSKTLIENDDVSTDPTISYFWYCYYIVRLTFNKPFIEDSQESETVVIEIIDDLKTLLDNFGKKFGNYTKGNLYQLYSCLLAINCLKKLKEIRSSEQDSWNAQLDFFNHIFYTQLYPAYDLPKKLQEDTELETEQENQMLNQVGNINYTHDFSLSHEIDDLIRELFGVGTPQKL
B5: Cti6 (protein, UniProt Q08923 1-506)
chain: MESTAIVPKGPVVGSEDMEKAEVIASGSTDIISTTSTATTTAAIGSVQEESVKQEDVPMEGGEGEVEEEEGETRCICGELDTPDDSGFFIQCEQCSSWQHGYCVSITQDNAPDKYWCEQCRPELHQLFTTDTGEARSIYKPVQEKRRQSRRKARSAAASKSHAANEAEKSPRNTSNTDDNVDDIGDEEDEVEDEASAVALAKDGNTRSSRRRRRNSMDDASTDQYSLDPGDSDKKLLDRKRATFMAREEKQYQRMLEKALKESRRTSHQEDPESYENDADIYQGDTDNHNGTTRLQTDVMLTEGKPDSVTNDDMKESLRPSKEQSMEKTNDVEKEASQEKESSTGSAQDTEKTDEPILPLTSISSSEDDSRKASSRGSKRVSKPARKGNRTRRSNTSSDTNQNRRSADIGTDKPVKPRLPPQRTSLNEMRRRVSAILEFISRTQWELSEDQSDREEFVRFVENQHFVEKVDTIYNGYNESLSMMDDLTRELLLWEKKYSNNTNAIQ
B6: Dep1 (protein, UniProt P31385 1-405)
chain: MSQQTPQESEQTTAKEQDLDQESVLSNIDFNTDLNHNLNLSEYCISSDAGTEKMDSDEEKSLANLPELKYAPKLSSLVKQETLTESLKRPHEDEKEAIDEAKKMKVPGENEDESKEEEKSQELEEAIDSKEKSTDARDEQGDEGDNEEENNEEDNENENEHTAPPALVMPSPIEMEEQRMTALKEITDIEYKFAQLRQKLYDNQLVRLQTELQMCLEGSHPELQVYYSKIAAIRDYKLHRAYQRQKYELSCINTETIATRTFIHQDFHKKVTDLRARLLNRTTQTWYDINKERRDMDIVIPDVNYHVPIKLDNKTLSCITGYASAAQLCYPGEPVAEDLACESIEYRYRANPVDKLEVIVDRMRLNNEISDLEGLRKYFHSFPGAPELNPLRDSEINDDFHQWAQ

Target: T1, Ume6 tagged at the carboxy-terminus with TurboID (TurboID-3xMyc) (Saccharomyces cerevisiae)
Experiment: proximity labelling; Ume6 with C-terminal TurboID-3xMyc in living diploid SK1 cells with 50 μM biotin; rich medium (YPD, exponential) or 4 h in SPO; WT, ime1Δ and rim11Δ cells; denatured extracts, streptavidin M280 beads, on-bead trypsin digestion, label-free LC-MS/MS; enrichment against an untagged control

Molecule	binding
Spt7 (from UniProt P35177 1-1332)	binds
B1	binds
B2	binds
B3	binds
B4	binds
B5	binds
B6	binds

These are yes or no findings as the source states them, for the method shown. Binding seen in cells or lysates may run through a third protein. Here binding means that the protein was enriched with, or labelled near, the bait; the list need not be complete. Tags and fused reporters may be left off the sequences shown.
